Data published in the supplement of paper PMC10849652.
Some of the results follow.

By UniProt entry, the sequences of proteins in these tests, tags left out. Where a name states a change or a piece, a line headed by the entry shows the natural chain unless it says otherwise.
UniProt Q96CB9: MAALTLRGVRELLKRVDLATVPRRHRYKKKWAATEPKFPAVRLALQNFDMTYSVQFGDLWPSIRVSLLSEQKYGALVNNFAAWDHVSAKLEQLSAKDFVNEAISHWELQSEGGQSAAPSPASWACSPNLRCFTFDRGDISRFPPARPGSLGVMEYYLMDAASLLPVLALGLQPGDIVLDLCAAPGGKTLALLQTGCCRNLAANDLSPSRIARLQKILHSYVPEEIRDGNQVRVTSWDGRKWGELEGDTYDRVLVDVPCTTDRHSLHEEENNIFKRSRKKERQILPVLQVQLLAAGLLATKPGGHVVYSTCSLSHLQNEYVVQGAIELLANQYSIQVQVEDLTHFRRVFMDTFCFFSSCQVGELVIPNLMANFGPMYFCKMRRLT
UniProt P80303: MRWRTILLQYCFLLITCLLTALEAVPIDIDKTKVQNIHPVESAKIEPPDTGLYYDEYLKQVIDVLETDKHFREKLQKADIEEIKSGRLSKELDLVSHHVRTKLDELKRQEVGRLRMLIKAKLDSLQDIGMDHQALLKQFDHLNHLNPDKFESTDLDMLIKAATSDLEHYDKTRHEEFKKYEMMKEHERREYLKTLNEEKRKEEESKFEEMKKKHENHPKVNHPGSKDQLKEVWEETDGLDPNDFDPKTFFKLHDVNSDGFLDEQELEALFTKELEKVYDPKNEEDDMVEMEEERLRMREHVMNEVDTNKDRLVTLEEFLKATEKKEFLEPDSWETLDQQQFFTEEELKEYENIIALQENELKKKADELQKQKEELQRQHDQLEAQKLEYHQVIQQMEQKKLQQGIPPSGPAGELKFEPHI
UniProt Q86UY8: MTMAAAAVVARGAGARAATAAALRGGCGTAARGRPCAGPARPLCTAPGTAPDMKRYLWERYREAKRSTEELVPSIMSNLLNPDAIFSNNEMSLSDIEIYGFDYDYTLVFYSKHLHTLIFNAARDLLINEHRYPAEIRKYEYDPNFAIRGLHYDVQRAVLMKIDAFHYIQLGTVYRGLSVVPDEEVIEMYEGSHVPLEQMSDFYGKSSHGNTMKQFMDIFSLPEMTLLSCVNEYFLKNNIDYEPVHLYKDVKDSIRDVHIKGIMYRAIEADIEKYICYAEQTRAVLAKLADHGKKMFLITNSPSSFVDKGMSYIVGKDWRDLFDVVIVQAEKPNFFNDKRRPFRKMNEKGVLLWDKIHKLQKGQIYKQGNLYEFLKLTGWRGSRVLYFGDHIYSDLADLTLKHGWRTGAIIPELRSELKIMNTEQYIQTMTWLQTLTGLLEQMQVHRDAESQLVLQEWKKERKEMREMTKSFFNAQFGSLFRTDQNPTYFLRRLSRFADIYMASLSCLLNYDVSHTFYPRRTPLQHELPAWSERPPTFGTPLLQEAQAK
UniProt Q9ULJ1: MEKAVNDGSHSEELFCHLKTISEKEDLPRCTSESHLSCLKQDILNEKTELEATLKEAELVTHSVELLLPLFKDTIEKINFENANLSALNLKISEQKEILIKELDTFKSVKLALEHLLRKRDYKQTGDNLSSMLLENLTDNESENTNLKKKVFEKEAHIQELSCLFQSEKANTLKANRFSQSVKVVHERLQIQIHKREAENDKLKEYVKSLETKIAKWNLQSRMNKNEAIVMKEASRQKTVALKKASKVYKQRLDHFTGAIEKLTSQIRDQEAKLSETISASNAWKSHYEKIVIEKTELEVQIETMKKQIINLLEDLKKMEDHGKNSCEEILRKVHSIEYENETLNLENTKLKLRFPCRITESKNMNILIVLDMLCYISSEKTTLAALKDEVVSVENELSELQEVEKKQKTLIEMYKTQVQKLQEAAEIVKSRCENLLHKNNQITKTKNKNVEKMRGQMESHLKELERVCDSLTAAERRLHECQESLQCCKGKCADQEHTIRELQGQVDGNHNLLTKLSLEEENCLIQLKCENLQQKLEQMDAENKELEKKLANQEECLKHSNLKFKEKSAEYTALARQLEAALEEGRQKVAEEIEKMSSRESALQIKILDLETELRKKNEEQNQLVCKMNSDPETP
UniProt Q13438: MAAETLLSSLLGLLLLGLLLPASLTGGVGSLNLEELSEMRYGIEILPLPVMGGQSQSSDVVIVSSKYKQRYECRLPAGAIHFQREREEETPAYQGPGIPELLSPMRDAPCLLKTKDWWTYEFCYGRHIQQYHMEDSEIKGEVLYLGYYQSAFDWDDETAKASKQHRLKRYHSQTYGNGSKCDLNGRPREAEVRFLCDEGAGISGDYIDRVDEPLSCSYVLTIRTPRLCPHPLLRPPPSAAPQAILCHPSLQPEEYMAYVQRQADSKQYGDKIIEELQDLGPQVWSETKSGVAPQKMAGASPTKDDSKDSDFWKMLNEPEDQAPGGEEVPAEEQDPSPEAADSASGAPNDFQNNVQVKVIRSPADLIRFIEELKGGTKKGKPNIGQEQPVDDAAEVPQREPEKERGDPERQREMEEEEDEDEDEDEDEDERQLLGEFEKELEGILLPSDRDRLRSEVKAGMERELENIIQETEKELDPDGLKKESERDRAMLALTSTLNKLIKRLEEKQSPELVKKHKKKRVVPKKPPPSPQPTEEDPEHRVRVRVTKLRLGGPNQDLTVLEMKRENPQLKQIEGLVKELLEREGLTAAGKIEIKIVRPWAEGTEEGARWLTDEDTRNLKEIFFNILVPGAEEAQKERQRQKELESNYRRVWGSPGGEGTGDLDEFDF
UniProt Q5SRE5: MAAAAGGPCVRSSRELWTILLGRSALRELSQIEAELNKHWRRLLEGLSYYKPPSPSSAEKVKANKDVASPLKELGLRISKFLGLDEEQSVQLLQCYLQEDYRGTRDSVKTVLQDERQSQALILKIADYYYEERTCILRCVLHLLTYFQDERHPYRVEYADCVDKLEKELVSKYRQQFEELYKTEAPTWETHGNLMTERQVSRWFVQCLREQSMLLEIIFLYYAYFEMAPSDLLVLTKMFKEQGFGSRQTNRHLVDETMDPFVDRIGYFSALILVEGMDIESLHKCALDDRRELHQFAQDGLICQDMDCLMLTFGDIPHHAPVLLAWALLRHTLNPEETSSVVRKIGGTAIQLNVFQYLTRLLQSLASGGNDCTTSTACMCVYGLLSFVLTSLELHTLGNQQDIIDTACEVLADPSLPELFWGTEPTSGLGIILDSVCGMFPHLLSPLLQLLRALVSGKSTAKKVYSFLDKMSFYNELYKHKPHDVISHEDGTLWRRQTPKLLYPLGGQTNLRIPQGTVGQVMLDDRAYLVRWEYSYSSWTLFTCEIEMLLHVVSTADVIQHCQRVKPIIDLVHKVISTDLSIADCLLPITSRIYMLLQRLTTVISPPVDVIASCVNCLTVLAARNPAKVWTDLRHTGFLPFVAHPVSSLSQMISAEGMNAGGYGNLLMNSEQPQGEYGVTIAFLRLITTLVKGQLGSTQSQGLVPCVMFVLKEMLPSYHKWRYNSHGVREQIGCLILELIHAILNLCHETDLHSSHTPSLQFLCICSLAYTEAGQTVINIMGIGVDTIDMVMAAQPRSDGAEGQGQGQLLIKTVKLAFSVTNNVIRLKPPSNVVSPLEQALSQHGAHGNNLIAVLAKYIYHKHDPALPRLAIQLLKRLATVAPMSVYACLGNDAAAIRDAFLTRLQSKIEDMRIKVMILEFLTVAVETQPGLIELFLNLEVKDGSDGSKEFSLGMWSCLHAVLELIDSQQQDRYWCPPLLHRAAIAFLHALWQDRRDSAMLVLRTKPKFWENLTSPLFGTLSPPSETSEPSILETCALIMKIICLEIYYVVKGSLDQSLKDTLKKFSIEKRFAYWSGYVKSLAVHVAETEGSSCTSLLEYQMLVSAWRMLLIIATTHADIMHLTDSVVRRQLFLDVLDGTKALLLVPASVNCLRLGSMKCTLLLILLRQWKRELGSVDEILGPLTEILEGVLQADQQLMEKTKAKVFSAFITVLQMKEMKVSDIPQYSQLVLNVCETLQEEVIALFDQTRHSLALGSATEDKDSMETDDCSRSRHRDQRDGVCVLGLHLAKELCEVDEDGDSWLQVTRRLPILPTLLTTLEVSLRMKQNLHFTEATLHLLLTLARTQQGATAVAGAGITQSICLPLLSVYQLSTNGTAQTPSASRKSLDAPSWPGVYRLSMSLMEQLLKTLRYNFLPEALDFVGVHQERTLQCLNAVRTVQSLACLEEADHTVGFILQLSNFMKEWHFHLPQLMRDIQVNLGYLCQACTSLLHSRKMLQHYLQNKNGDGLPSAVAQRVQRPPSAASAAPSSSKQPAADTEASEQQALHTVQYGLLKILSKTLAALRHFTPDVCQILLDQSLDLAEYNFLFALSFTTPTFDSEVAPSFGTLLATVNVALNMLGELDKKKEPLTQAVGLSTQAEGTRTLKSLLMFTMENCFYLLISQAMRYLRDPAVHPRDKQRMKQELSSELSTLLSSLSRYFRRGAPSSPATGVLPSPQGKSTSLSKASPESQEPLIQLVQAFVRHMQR
UniProt Q9NZJ9: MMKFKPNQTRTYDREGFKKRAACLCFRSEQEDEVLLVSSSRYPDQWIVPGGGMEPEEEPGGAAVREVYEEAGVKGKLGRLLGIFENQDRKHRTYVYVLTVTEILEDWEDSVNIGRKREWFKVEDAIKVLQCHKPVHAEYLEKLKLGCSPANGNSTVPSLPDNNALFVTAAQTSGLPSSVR
UniProt Q9NPF4: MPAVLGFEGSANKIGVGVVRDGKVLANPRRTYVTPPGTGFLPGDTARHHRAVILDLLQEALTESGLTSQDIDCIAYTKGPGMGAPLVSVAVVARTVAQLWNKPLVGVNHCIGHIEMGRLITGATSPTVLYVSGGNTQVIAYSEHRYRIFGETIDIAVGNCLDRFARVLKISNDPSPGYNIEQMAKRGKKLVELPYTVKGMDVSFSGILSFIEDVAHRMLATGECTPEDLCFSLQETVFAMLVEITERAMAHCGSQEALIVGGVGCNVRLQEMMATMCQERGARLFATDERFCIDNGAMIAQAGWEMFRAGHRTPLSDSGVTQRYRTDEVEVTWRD
UniProt A8MXV4: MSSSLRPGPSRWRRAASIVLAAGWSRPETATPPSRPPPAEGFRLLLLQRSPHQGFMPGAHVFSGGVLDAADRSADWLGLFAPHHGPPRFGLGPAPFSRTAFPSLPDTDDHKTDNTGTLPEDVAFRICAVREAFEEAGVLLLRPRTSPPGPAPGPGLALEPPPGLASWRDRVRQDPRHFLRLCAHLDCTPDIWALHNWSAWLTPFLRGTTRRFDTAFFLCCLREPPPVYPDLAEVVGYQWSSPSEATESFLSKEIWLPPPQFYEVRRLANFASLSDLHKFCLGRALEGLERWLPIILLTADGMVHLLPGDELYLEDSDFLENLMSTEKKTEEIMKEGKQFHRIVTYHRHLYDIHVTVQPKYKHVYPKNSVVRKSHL
UniProt O43929: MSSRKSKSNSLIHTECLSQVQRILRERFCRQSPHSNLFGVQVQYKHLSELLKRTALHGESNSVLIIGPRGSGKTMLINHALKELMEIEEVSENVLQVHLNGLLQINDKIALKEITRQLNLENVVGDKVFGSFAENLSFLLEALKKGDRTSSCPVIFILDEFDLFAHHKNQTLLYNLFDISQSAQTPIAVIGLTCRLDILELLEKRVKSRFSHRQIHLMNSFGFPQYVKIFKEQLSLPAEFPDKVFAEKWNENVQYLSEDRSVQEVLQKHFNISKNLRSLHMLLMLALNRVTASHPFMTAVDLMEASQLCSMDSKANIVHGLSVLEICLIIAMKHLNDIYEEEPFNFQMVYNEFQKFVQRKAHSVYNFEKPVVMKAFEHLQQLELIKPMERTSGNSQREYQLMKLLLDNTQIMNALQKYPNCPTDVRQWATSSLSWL
UniProt P13674: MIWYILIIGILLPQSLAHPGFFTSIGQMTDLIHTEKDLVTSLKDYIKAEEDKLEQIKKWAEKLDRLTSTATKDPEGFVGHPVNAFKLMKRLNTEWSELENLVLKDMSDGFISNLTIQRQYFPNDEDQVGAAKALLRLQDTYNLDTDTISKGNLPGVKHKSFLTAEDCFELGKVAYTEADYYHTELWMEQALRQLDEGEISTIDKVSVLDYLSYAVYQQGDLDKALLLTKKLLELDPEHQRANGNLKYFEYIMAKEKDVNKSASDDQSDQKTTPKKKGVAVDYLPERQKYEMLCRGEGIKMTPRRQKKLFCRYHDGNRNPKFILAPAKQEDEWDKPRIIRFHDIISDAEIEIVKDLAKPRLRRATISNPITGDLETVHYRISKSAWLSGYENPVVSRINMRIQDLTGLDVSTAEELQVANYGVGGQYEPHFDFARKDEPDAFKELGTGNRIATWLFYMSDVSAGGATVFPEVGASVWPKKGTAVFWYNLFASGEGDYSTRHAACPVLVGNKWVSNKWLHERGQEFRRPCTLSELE
UniProt Q96FW1, whole entry, looked up: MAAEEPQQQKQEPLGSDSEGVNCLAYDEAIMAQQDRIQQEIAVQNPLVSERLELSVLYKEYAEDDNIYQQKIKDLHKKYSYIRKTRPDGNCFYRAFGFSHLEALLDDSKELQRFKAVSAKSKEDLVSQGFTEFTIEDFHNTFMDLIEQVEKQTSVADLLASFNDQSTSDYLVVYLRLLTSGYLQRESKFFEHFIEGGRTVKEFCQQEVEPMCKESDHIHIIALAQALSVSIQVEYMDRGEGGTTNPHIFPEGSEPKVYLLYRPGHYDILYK

Compound: c1cn2cc(-c3ccc4cn[nH]c4c3)nc(Nc3ccc(N4CCOCC4)cc3)c2n1 [entospletinib]
Experiment: log2 fold change, soluble protein after heating vs DMSO (PISA); higher = thermal stabilisation; K562 cells, 10 uM, 30 min; active = over 0.2 and 3.5 SD of the protein, either way, in both replicates (recomputed)
How it was run: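 K562 cells at 2×10^6 cells/mL were given 10 μM compound for 30 min. Aliquots then went through 3 min of heating across 48°C-58°C, were pooled, and were extracted in PBS with 0.5% NP-40 at 4°C, and the supernatant after 21,000xg for 90 min was quantified by TMTpro 16plex LC-MS/MS with channel sums equalised. Thermal stability relative to control samples, from duplicates, is given as log2 fold change.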

log2 fold change, inactive:
NSUN4 (UniProt Q96CB9) 0.041
NUCB2 (UniProt P80303) 0.022
NUDT12 (UniProt Q9BQG2) -0.001
NT5DC3 (UniProt Q86UY8) -0.022
NUBP1 (UniProt P53384) -0.055
ODF2L isoform 4 (UniProt Q9ULJ1) -0.143
NSMCE1 (UniProt Q8WV22) 0.033
NUBPL (UniProt Q8TB37) -0.062
ORC2 (UniProt Q13416) -0.044
OMA1 (UniProt Q96E52) -0.028
NT5C3A (UniProt Q9H0P0) 0.084
NUP93 (UniProt Q8N1F7) -0.009
PABPC1 (UniProt P11940) 0.11
OS9 (UniProt Q13438) 0.043
NUP188 (UniProt Q5SRE5) -0.016
OTUD7B (UniProt Q6GQQ9) -0.111
NUP153 (UniProt P49790) 0.024
OSBPL6 isoform 5 (UniProt Q9BZF3) 0.052
NUDT4 (UniProt Q9NZJ9) -0.043
OSGEP (UniProt Q9NPF4) 0.028
NUDT19 (UniProt A8MXV4) -0.003
ORC4 (UniProt O43929) -0.059
NUDT5 (UniProt Q9UKK9) -0.017
P4HA1 (UniProt P13674) 0.016
OTUB1 (UniProt Q96FW1) -0.058
NSMCE3 (UniProt Q96MG7) -0.007
OSBPL9 (UniProt Q96SU4) 0.114
OXNAD1 (UniProt Q96HP4) -0.002
NUSAP1 (UniProt Q9BXS6) -0.006
NUDT16L1 (UniProt Q9BRJ7) -0.011
P4HA1 isoform 2 (UniProt P13674) 0.036

A run of entries from further up, as a working copy:
log2 fold change, inactive:
NUCB2 (UniProt P80303) 0.022
NUDT12 (UniProt Q9BQG2) -0.001
